{
  "source": "patent US20250049660A1",
  "about": "“ENOL ETHER PROPERFUME” (FIRMENICH SA, priority 2021, published 2025)",
  "experiment": "Dynamic headspace analysis of line-dried cotton treated with liquid fabric softener",
  "conditions": "± standard deviation; for Dynamic headspace concentration of 3,7-dimethyloctane, profragrance / Dynamic headspace concentration of 3,7-dimethyloctanyl formate, profragrance / Dynamic headspace concentration of decanal, profragrance / Dynamic headspace concentration of 2-octanol, profragrance / Dynamic headspace concentration of 2-octanyl formate, profragrance / Dynamic headspace concentration of undecanal, profragrance / Dynamic headspace concentration of 2-phenylethanol, profragrance / Dynamic headspace concentration of 2-phenylethyl formate, profragrance / Dynamic headspace concentration of octanal, profragrance / Dynamic headspace concentration of citronellol, profragrance / Dynamic headspace concentration of citronellyl formate, profragrance / Dynamic headspace concentration of 2-methylundecanal, profragrance / Dynamic headspace concentration of 2-phenoxyethan-1-ol, profragrance / Dynamic headspace concentration of 2-phenoxyethyl formate, profragrance / Dynamic headspace concentration of cis-3-hexen-1-ol, profragrance / Dynamic headspace concentration of cis-3-hexenyl formate, profragrance: fabric softener; for Dynamic headspace concentration of the perfumery raw material itself, reference: reference fabric softener with 0.075 mmol of each free volatile",
  "note": "Values joined by “and” are separate entries in the source; they are usually repeats but may differ in a detail not shown here. Identical values can stand only once. Counter-ions that a name gives are not always drawn.",
  "data": [
    {"smiles": "CCCCCCCCCC=COCCC(C)CCCC(C)C", "note": "(stereo not shown) [Compound 11, 1-((3,7-dimethyloctyl)oxy)undec-1-ene]", "values": [
      {"measurement": "Dynamic headspace concentration of 3,7-dimethyloctane, profragrance", "setting": "60 min sample (60-75 min)", "value": "22.8 ± 6.4", "unit": "ng/L"},
      {"measurement": "Dynamic headspace concentration of 3,7-dimethyloctanyl formate, profragrance", "setting": "60 min sample (60-75 min)", "value": "110 ± 36.6", "unit": "ng/L"},
      {"measurement": "Dynamic headspace concentration of decanal, profragrance", "setting": "60 min sample (60-75 min)", "value": "296 ± 87.8", "unit": "ng/L"},
      {"measurement": "Dynamic headspace concentration of 3,7-dimethyloctane, profragrance", "setting": "120 min sample (120-135 min)", "value": "28.4 ± 11.2", "unit": "ng/L"},
      {"measurement": "Dynamic headspace concentration of 3,7-dimethyloctanyl formate, profragrance", "setting": "120 min sample (120-135 min)", "value": "84.7 ± 25.6", "unit": "ng/L"},
      {"measurement": "Dynamic headspace concentration of decanal, profragrance", "setting": "120 min sample (120-135 min)", "value": "302 ± 102.6", "unit": "ng/L"}
    ]},
    {"smiles": "CCCCCCCCCCC=COC(C)CCCCCC", "note": "(stereo not shown) [Compound 13, 1-(octan-2-yloxy)dodec-1-ene]", "values": [
      {"measurement": "Dynamic headspace concentration of 2-octanol, profragrance", "setting": "60 min sample (60-75 min)", "value": "46.6 ± 9.8", "unit": "ng/L"},
      {"measurement": "Dynamic headspace concentration of 2-octanyl formate, profragrance", "setting": "60 min sample (60-75 min)", "value": "28.5 ± 15", "unit": "ng/L"},
      {"measurement": "Dynamic headspace concentration of undecanal, profragrance", "setting": "60 min sample (60-75 min)", "value": "132 ± 33.2", "unit": "ng/L"},
      {"measurement": "Dynamic headspace concentration of 2-octanol, profragrance", "setting": "120 min sample (120-135 min)", "value": "56.6 ± 12.8", "unit": "ng/L"},
      {"measurement": "Dynamic headspace concentration of 2-octanyl formate, profragrance", "setting": "120 min sample (120-135 min)", "value": "29.9 ± 20.5", "unit": "ng/L"},
      {"measurement": "Dynamic headspace concentration of undecanal, profragrance", "setting": "120 min sample (120-135 min)", "value": "155 ± 46.9", "unit": "ng/L"}
    ]},
    {"smiles": "CCCCCCCC=COCCc1ccccc1", "note": "[Compound 14, (2-(non-1-en-1-yloxy)ethyl)benzene]", "values": [
      {"measurement": "Dynamic headspace concentration of 2-phenylethanol, profragrance", "setting": "60 min sample (60-75 min)", "value": "13.8 ± 1.4", "unit": "ng/L"},
      {"measurement": "Dynamic headspace concentration of 2-phenylethyl formate, profragrance", "setting": "60 min sample (60-75 min)", "value": "148 ± 28.9", "unit": "ng/L"},
      {"measurement": "Dynamic headspace concentration of octanal, profragrance", "setting": "60 min sample (60-75 min)", "value": "366 ± 42.6", "unit": "ng/L"},
      {"measurement": "Dynamic headspace concentration of 2-phenylethanol, profragrance", "setting": "120 min sample (120-135 min)", "value": "17.7 ± 1.7", "unit": "ng/L"},
      {"measurement": "Dynamic headspace concentration of 2-phenylethyl formate, profragrance", "setting": "120 min sample (120-135 min)", "value": "167 ± 41.9", "unit": "ng/L"},
      {"measurement": "Dynamic headspace concentration of octanal, profragrance", "setting": "120 min sample (120-135 min)", "value": "270 ± 14.8", "unit": "ng/L"}
    ]},
    {"smiles": "CCCCCCCC=COCCC(C)CCC=C(C)C", "note": "(stereo not shown) [Compound 15, 1-((3,7-dimethyloct-6-en-1-yl)oxy)non-1-ene]", "values": [
      {"measurement": "Dynamic headspace concentration of citronellol, profragrance", "setting": "60 min sample (60-75 min)", "value": "24.2 ± 1.1", "unit": "ng/L"},
      {"measurement": "Dynamic headspace concentration of citronellyl formate, profragrance", "setting": "60 min sample (60-75 min)", "value": "184 ± 20.2", "unit": "ng/L"},
      {"measurement": "Dynamic headspace concentration of octanal, profragrance", "setting": "60 min sample (60-75 min)", "value": "473 ± 45.6", "unit": "ng/L"},
      {"measurement": "Dynamic headspace concentration of citronellol, profragrance", "setting": "120 min sample (120-135 min)", "value": "36.1 ± 2.2", "unit": "ng/L"},
      {"measurement": "Dynamic headspace concentration of citronellyl formate, profragrance", "setting": "120 min sample (120-135 min)", "value": "163 ± 16.2", "unit": "ng/L"},
      {"measurement": "Dynamic headspace concentration of octanal, profragrance", "setting": "120 min sample (120-135 min)", "value": "335 ± 41.5", "unit": "ng/L"}
    ]},
    {"smiles": "CCCCCCCCCC(C)C=COCCOc1ccccc1", "note": "(stereo not shown) [Compound 26, (2-((3-methyldodec-1-en-1-yl)oxy)ethoxy)benzene]", "values": [
      {"measurement": "Dynamic headspace concentration of 2-methylundecanal, profragrance", "setting": "60 min sample (60-75 min)", "value": "355 ± 49.1", "unit": "ng/L"},
      {"measurement": "Dynamic headspace concentration of 2-phenoxyethan-1-ol, profragrance", "setting": "60 min sample (60-75 min)", "value": "28 ± 4.6", "unit": "ng/L"},
      {"measurement": "Dynamic headspace concentration of 2-phenoxyethyl formate, profragrance", "setting": "60 min sample (60-75 min)", "value": "209 ± 26.8", "unit": "ng/L"},
      {"measurement": "Dynamic headspace concentration of 2-methylundecanal, profragrance", "setting": "120 min sample (120-135 min)", "value": "365 ± 91.3", "unit": "ng/L"},
      {"measurement": "Dynamic headspace concentration of 2-phenoxyethan-1-ol, profragrance", "setting": "120 min sample (120-135 min)", "value": "37.2 ± 6.2", "unit": "ng/L"},
      {"measurement": "Dynamic headspace concentration of 2-phenoxyethyl formate, profragrance", "setting": "120 min sample (120-135 min)", "value": "252 ± 18.1", "unit": "ng/L"}
    ]},
    {"smiles": "CC/C=C\\CCOC=CC(C)CCCCCCCCC", "note": "(stereo not shown) [Compound 27, 1-(((Z)-hex-3-en-1-yl)oxy)-3-methyldodec-1-ene]", "values": [
      {"measurement": "Dynamic headspace concentration of 2-methylundecanal, profragrance", "setting": "60 min sample (60-75 min)", "value": "474 ± 97.5", "unit": "ng/L"},
      {"measurement": "Dynamic headspace concentration of cis-3-hexen-1-ol, profragrance", "setting": "60 min sample (60-75 min)", "value": "69.4 ± 44.9", "unit": "ng/L"},
      {"measurement": "Dynamic headspace concentration of cis-3-hexenyl formate, profragrance", "setting": "60 min sample (60-75 min)", "value": "24.4 ± 6.9", "unit": "ng/L"},
      {"measurement": "Dynamic headspace concentration of 2-methylundecanal, profragrance", "setting": "120 min sample (120-135 min)", "value": "346 ± 128", "unit": "ng/L"},
      {"measurement": "Dynamic headspace concentration of cis-3-hexen-1-ol, profragrance", "setting": "120 min sample (120-135 min)", "value": "47.5 ± 35.2", "unit": "ng/L"},
      {"measurement": "Dynamic headspace concentration of cis-3-hexenyl formate, profragrance", "setting": "120 min sample (120-135 min)", "value": "19.5 ± 8.7", "unit": "ng/L"}
    ]},
    {"smiles": "CCCCCCCC=COCC", "note": "[Compound 36, 1-ethoxynon-1-ene, reference compound]", "values": [
      {"measurement": "Dynamic headspace concentration of octanal, profragrance", "setting": "60 min sample (60-75 min)", "value": "12.1 ± 0.9", "unit": "ng/L"},
      {"measurement": "Dynamic headspace concentration of octanal, profragrance", "setting": "120 min sample (120-135 min)", "value": "10.1 ± 0.7", "unit": "ng/L"}
    ]},
    {"smiles": "CCCCCCCCCC=COCC", "note": "[Compound 37, 1-ethoxyundec-1-ene, reference compound]", "values": [
      {"measurement": "Dynamic headspace concentration of decanal, profragrance", "setting": "60 min sample (60-75 min)", "value": "12.8 ± 9.8", "unit": "ng/L"},
      {"measurement": "Dynamic headspace concentration of decanal, profragrance", "setting": "120 min sample (120-135 min)", "value": "20.0 ± 3.0", "unit": "ng/L"}
    ]},
    {"smiles": "CCCCCCCCCCC=COCC", "note": "[Compound 38, 1-ethoxydodec-1-ene, reference compound]", "values": [
      {"measurement": "Dynamic headspace concentration of undecanal, profragrance", "setting": "60 min sample (60-75 min)", "value": "6.3 ± 0.7", "unit": "ng/L"},
      {"measurement": "Dynamic headspace concentration of undecanal, profragrance", "setting": "120 min sample (120-135 min)", "value": "9.4 ± 1.2", "unit": "ng/L"}
    ]},
    {"smiles": "CC(C)=CCCC(C)CCO", "note": "(stereo not shown) [citronellol, reference compound]", "values": [
      {"measurement": "Dynamic headspace concentration of the perfumery raw material itself, reference", "setting": "60 min sample (60-75 min)", "value": "1.9 ± 0.3", "unit": "ng/L"},
      {"measurement": "Dynamic headspace concentration of the perfumery raw material itself, reference", "setting": "120 min sample (120-135 min)", "value": "2.0 ± 0.5", "unit": "ng/L"}
    ]},
    {"smiles": "CC(C)=CCCC(C)CCOC=O", "note": "(stereo not shown) [citronellyl formate, reference compound]", "values": [
      {"measurement": "Dynamic headspace concentration of the perfumery raw material itself, reference", "setting": "60 min sample (60-75 min)", "value": "0.57 ± 0.29", "unit": "ng/L"},
      {"measurement": "Dynamic headspace concentration of the perfumery raw material itself, reference", "setting": "120 min sample (120-135 min)", "value": "0.5 ± 0.16", "unit": "ng/L"}
    ]},
    {"smiles": "CCCCCCCCCCCC=O", "note": "[dodecanal, reference compound]", "values": [
      {"measurement": "Dynamic headspace concentration of the perfumery raw material itself, reference", "setting": "60 min sample (60-75 min)", "value": "117 ± 13.2", "unit": "ng/L"},
      {"measurement": "Dynamic headspace concentration of the perfumery raw material itself, reference", "setting": "120 min sample (120-135 min)", "value": "145 ± 38.0", "unit": "ng/L"}
    ]},
    {"smiles": "CCCCCCCC=O", "note": "[octanal, reference compound]", "values": [
      {"measurement": "Dynamic headspace concentration of the perfumery raw material itself, reference", "setting": "60 min sample (60-75 min)", "value": "9.2 ± 0.5 ng/L and 6.2 ± 0.9 ng/L and 9.5 ± 0.7 ng/L"},
      {"measurement": "Dynamic headspace concentration of the perfumery raw material itself, reference", "setting": "120 min sample (120-135 min)", "value": "8.4 ± 0.7 ng/L and 5.9 ± 0.5 ng/L and 9.0 ± 0.3 ng/L"}
    ]},
    {"smiles": "O=CCc1ccccc1", "note": "[phenylacetaldehyde, reference compound]", "values": [
      {"measurement": "Dynamic headspace concentration of the perfumery raw material itself, reference", "setting": "60 min sample (60-75 min)", "value": "12.1 ± 2.9", "unit": "ng/L"},
      {"measurement": "Dynamic headspace concentration of the perfumery raw material itself, reference", "setting": "120 min sample (120-135 min)", "value": "14.9 ± 1.6", "unit": "ng/L"}
    ]}
  ]
}
